Reference: publication PMC5871876
Construct, isoform or probe ends are uncertain for at least one entry. Where cells or extracts were used, other partners may take part. For some assays here: At least one verdict was read from the data and is not stated in words by the source. Protein sequences can lack the tags named with them.

What was measured:
Experiment in all cases: pull-down, UV cross-linking, MS
Conditions in all cases: tRNA competitor, absent from or subtracted against 74-95 RNA control; extra DTT, 30 ug tRNA, 160 ug yeast protein; protein in an extract; label: 3'-biotin
[1] = biological target: T1, Arc1p (Saccharomyces cerevisiae M3 (wild type)) (UniProt P46672)
T1 sequence (looked up, limits assumed): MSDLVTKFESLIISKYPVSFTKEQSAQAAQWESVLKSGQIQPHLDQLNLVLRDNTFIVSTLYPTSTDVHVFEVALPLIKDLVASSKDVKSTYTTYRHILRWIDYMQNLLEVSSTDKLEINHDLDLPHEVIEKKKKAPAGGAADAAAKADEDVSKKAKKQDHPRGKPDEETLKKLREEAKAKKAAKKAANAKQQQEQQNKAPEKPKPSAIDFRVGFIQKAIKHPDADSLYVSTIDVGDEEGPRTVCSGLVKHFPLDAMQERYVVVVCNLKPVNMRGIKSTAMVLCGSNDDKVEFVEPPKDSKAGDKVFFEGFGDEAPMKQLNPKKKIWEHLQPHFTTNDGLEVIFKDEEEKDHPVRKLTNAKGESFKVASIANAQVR

[2] = biological target: T2, HYP2 (eIF5a) (Saccharomyces cerevisiae M3 (wild type)) (UniProt P23301)
T2 sequence (looked up, limits assumed): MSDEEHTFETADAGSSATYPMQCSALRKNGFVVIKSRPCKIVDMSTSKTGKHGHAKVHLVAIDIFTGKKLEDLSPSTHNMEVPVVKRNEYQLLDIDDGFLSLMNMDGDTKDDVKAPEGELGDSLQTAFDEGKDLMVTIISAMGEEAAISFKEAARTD

[3] = biological target: T3, Asc1 (Saccharomyces cerevisiae M3 (wild type)) (UniProt P38011)
T3 sequence (looked up, limits assumed): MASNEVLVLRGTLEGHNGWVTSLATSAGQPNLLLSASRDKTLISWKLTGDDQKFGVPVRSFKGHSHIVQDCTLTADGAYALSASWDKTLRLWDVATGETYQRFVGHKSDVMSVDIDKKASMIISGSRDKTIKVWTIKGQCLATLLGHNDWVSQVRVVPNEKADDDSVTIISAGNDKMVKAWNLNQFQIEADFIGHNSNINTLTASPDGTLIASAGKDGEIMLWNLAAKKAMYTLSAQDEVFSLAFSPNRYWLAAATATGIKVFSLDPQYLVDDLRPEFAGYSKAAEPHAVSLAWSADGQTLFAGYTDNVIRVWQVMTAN

[4] = biological target: T4, eIF4A (Saccharomyces cerevisiae M3 (wild type)) (UniProt P10081)
T4 sequence (looked up, limits assumed): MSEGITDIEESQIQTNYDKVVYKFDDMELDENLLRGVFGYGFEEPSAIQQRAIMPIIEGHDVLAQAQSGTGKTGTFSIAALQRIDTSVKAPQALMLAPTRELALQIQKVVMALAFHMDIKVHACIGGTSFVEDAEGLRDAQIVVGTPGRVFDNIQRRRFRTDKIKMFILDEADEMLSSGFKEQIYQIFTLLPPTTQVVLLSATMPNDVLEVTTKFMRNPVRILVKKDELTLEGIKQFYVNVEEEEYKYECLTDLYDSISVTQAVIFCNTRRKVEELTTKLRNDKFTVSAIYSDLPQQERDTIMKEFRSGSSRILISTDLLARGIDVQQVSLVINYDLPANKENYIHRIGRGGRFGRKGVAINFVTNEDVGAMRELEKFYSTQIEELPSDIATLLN

[5] = biological target: T5, Valyl-tRNA synthetase (Saccharomyces cerevisiae M3 (wild type)) (UniProt P07806)
T5 sequence (looked up, limits assumed): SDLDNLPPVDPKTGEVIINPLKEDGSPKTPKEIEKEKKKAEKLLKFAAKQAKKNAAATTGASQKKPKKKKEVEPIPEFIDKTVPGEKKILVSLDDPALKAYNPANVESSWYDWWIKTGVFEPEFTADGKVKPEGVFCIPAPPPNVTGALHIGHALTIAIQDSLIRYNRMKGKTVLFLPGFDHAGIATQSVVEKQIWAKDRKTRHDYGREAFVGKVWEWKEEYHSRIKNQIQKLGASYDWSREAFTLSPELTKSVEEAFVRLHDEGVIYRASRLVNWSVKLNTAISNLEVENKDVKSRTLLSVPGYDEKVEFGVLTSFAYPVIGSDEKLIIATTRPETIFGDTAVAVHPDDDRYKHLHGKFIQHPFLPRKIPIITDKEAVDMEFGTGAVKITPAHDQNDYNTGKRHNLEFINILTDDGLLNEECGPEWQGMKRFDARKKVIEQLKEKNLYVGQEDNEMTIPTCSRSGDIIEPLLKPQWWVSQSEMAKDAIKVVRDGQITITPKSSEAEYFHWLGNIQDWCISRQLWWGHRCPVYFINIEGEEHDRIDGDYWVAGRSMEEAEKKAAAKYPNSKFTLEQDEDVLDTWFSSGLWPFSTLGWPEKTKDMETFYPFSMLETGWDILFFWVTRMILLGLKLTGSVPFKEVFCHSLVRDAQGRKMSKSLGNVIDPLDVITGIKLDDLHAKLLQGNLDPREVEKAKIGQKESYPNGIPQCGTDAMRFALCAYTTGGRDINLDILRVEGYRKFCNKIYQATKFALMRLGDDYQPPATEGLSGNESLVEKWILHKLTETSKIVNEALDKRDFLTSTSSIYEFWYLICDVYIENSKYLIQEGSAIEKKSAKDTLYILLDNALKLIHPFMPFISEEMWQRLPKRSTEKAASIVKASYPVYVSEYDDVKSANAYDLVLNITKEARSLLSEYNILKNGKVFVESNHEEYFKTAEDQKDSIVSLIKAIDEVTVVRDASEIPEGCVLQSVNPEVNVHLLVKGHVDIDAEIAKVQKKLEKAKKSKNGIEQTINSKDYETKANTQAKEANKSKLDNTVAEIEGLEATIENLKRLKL

Measured: binding result

UAUCGUCAUGUUGCCAUCCACCAGCGU [Biotin-10-37 RNA (1B-5' UTR)]
binds: all assays above
